Data as given in PubChem BioAssay AID720505 (Drosophila RNAi Screening Center, 2013)
Assay: 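Knock-downs that reduce calcium influx once internal stores are emptied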 (primary screen). Cells: Drosophila S2R+ cells. Reagents: long dsRNA against Drosophila genes. Conditions: thapsigargin (2 µM) in calcium-free buffer to empty internal stores, then 2 mM calcium added back. Read-out: 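Fluo-4 signal in 384-well plates read on a FLIPR after thapsigargin (2 µM, calcium-free) store depletion and 2 mM calcium add-back; unnormalised mean endpoint per well; screen run twice, selected wells retested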. Scale: calcium signal and retest calcium signal: higher = more calcium entry after store depletion. Call rule: 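Knock-downs counted as hits when calcium entry dropped relative to STIM1 positive and Rho1 negative controls present on each plate; roughly 1500 genes called, with reductions of differing size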. Meaning of the calls: active = called as lowering calcium entry; inactive = not called.
In all, the deposit lists about 20,000 reagents; this is a random part of those that have a named target and a result. In the full data, about 2,100 (10%) were called active. 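Raw plate signals without normalisation; calls rest on control-based scores that were not deposited; replicate 2 separates called from uncalled poorly.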 Reagents against one gene are numbered here. Names joined by + are all predicted targets of the reagent. Reagent sequences are not shown. Not given: the amount of reagent, the time to read-out.

| predicted target | reagent | calcium signal, replicate 1 | calcium signal, replicate 2 | retest calcium signal, replicate 1 | retest calcium signal, replicate 2 | activity call |
| --- | --- | --- | --- | --- | --- | --- |
| Act42A (GeneID 35526) | 1 | 144 | 120 | – | – | inactive |
| Mitf (GeneID 3885647) | 1 | 123 | 164 | – | – | inactive |
| Mitf (GeneID 3885647) | 2 | 62.2 | 114 | – | – | inactive |
| CG30279 (retired record) (GeneID 246524) | 1 | 72.9 | 147 | – | – | inactive |
| CG17782 (GeneID 42912) | 1 | 224 | 94.5 | – | – | inactive |
| CG17782 (GeneID 42912) | 2 | 108 | 145 | – | – | inactive |
| CG10587 (GeneID 40318) | 1 | 76.6 | 111 | – | – | inactive |
| Lip4 (GeneID 34450) | 1 | 181 | 206 | – | – | inactive |
| CG34330 (GeneID 2768869) | 1 | 77.3 | 92.1 | – | – | active |
| CG5910 (GeneID 40264) | 1 | 96.7 | 129 | – | – | inactive |
| Tbc1d22 (GeneID 42498) | 1 | 199 | 352 | – | – | inactive |
| RpS23 (GeneID 36576) | 1 | 154 | 142 | – | – | inactive |
| CG13711 (GeneID 38576) | 1 | 110 | 78 | – | – | inactive |
| pit (GeneID 42595) | 1 | 126 | 179 | – | – | inactive |
| pit (GeneID 42595) | 2 | 72 | 90.2 | – | – | inactive |
| Hap40 (GeneID 32507) | 1 | 119 | 106 | – | – | inactive |
| NijC (GeneID 41568) | 1 | 174 | 90 | – | – | inactive |
| CG14020 (GeneID 33771) | 1 | 69.8 | 141 | – | – | active |
| ATPsynF (GeneID 37931) | 1 | 187 | 78.7 | – | – | inactive |
| Eig71Eh (GeneID 39709) | 1 | 124 | 185 | – | – | inactive |
| CG9467 (GeneID 41207) | 1 | 129 | 141 | – | – | inactive |
| CG6726 (GeneID 42728) | 1 | 171 | 131 | – | – | inactive |
| Pdfr (GeneID 31234) | 1 | 82.6 | 109 | – | – | inactive |
| CG11626 (GeneID 42323) | 1 | 118 | 181 | – | – | inactive |
| Gprk2 (GeneID 49045) | 1 | 97.9 | 92.8 | – | – | inactive |
| Gprk2 (GeneID 49045) | 2 | 129 | 174 | – | – | inactive |
| TwdlR (GeneID 318586) | 1 | 96.6 | 146 | – | – | inactive |
| mex1 (GeneID 39677) | 1 | 90.5 | 89.4 | – | – | inactive |
| pbl (GeneID 38879) | 1 | 69.1 | 121 | – | – | active |
| CG4766 (GeneID 31533) | 1 | 242 | 120 | – | – | inactive |
| CG33679 (GeneID 3772494) | 1 | 66.1 | 169 | – | – | active |
| CG5500 (GeneID 43233) | 1 | 193 | 142 | – | – | inactive |
| disco (GeneID 32579) | 1 | 94.5 | 113 | – | – | inactive |
| CG1889 + CG43386 | 1 | 73.8 | 144 | – | – | active |
| CG14708 (GeneID 41383) | 1 | 141 | 100 | – | – | inactive |
| RecQ5 (GeneID 39594) | 1 | 95.7 | 89.4 | – | – | inactive |
| l(1)G0004 (GeneID 33033) | 1 | 107 | 110 | – | – | inactive |
| CG9449 (GeneID 40117) | 1 | 105 | 162 | – | – | inactive |
| mAChR-B (GeneID 40955) | 1 | 93.2 | 224 | – | – | inactive |
| dbo (GeneID 53556) | 1 | 115 | 221 | – | – | inactive |
| Bx (GeneID 32846) | 1 | 100 | 147 | – | – | inactive |
| Bx (GeneID 32846) | 2 | 85.2 | 94.7 | – | – | inactive |
| Bx (GeneID 32846) | 3 | 62.6 | 91 | – | – | inactive |
| Efhc1.2 (GeneID 37284) | 1 | 141 | 119 | – | – | inactive |
| CG9853 (GeneID 40557) | 1 | 164 | 84 | 133 | 108 | inactive |
| CG9853 (GeneID 40557) | 2 | 87.3 | 101 | – | – | inactive |
| CG1698 (GeneID 36006) | 1 | 158 | 183 | – | – | inactive |
| CG34169 (GeneID 5740400) | 1 | 130 | 93.7 | – | – | inactive |
| Trmt61 (GeneID 43170) | 1 | 200 | 130 | – | – | inactive |
| Tre1 (GeneID 140439) | 1 | 182 | 127 | – | – | inactive |
| scw (GeneID 46000) | 1 | 142 | 114 | – | – | inactive |
| scw (GeneID 46000) | 2 | 158 | 101 | – | – | inactive |
| Coa8 (GeneID 31148) | 1 | 93.4 | 162 | – | – | inactive |
| Gr22e (GeneID 117498) | 1 | 91.9 | 7108 | – | – | inactive |
| CG13454 (GeneID 39676) | 1 | 104 | 132 | – | – | inactive |
| O-fut2 (GeneID 31098) | 1 | 62 | 89.2 | – | – | active |

9 entries from above in another layout.
predicted target,reagent,"calcium signal, replicate 1","calcium signal, replicate 2","retest calcium signal, replicate 1","retest calcium signal, replicate 2",activity call
Gprk2 (GeneID 49045),2,129,174,,,inactive
TwdlR (GeneID 318586),1,96.6,146,,,inactive
mex1 (GeneID 39677),1,90.5,89.4,,,inactive
pbl (GeneID 38879),1,69.1,121,,,active
CG4766 (GeneID 31533),1,242,120,,,inactive
CG33679 (GeneID 3772494),1,66.1,169,,,active
CG5500 (GeneID 43233),1,193,142,,,inactive
disco (GeneID 32579),1,94.5,113,,,inactive
CG1889 + CG43386,1,73.8,144,,,active
